Experimental data from PMC2747011, “Soybean GmPHD-Type Transcription Regulators Improve Stress Tolerance in Transgenic Arabidopsis Plants”.
These are yes or no findings as the source states them, for the method shown. A result given as binding can be weak or reduced; the word gives no strength.

Experiments:
Test in all cases: two-hybrid; yeast strain YRG2 (Stratagene); pAD-GmPHD6 with pBD constructs; growth on SD-His/Trp/Leu with 10 mM 3-AT and X-gal staining (LacZ)
[1] = target: GmPHD1 (soybean (Glycine max)) (UniProt Q06A73)
[2] = target: GmPHD4 (soybean (Glycine max)) (UniProt Q06A76)
[3] = target: GmPHD5 (soybean (Glycine max)) (UniProt Q06A75)

binding [1]: binds
binding [2]: binds
binding [3]: binds
Substance: GmPHD6 (from UniProt Q06A74)
